# In patent US20150125432A1, “Human Persistent Fetal Vasculature Neural Progenitors for Transplantation in the Inner Retina” (The Schepens Eye Research Institute, Inc., priority 2012, published 2015):
# At least one structure is not confirmed: it was looked up by name or label, or the drawing left a doubt.
# System: NPPFV cells
# Experiment: Ca2+ imaging (Fura-2) of NPPFV cells after stimulation with neurotransmitters
# Type: cell-based, human
# Settings: undifferentiated and differentiated NPPFV cells; result in words
# Procedure: Cells were incubated at 37° C. for 30 min in X-vivo medium (containing 3% FBS, 5 μM Fura-2 tetra-acetoxymethyl ester, 8 μM pluronic acid F127 and 250 μM sulfinpyrazone). Cells were washed in modified Mg^2+-free Hank's balanced salt solution (HBSS, 2.6 mM CaCl2, 15 mM HEPES [pH 7.4] and 250 μM sulfinpyrazone). Five types of neurotransmitters, γ-aminobutyric acid (GABA), glutamate (Glu), glycine (Gly), dopamine (Dopa) and acetylcholine (Ach) were dissolved in modified HBSS at a concentration of 0.1 mM. The largest dynamic range for Ca^2+-dependent fluorescence signals is obtained by excitation at 340 nm and 380 nm, and detecting their ratio of emission fluorescence intensities at around 510 nm. From this ratio, the concentration of intracellular Ca^2+ ([Ca^2+]i) can be estimated, using dissociation constants that are derived from calibration curves. By using the ratio of fluorescence intensities produced by excitation at two wave lengths, factors such as uneven dye distribution and photo bleaching are minimized ([…] Ratio Imaging System, Cincinnati, Ohio). The change of [Ca^2+]i was calculated from the difference between the peak Ca^2+ concentration evoked by each agonist and the control value of HBSS (before the addition of agonist). At least 80 cells were selected for analyzing the change of [Ca^2+]i evoked by each agonist, averaged over three repetitions.
smiles,measurement,value
"CC(=O)OCC[N+](C)(C)C [Ach, acetylcholine]",elicited [Ca2+]i of responding NPPFV cells,quite low
